Structures were worked out from names or drawings and are uncertain.
Molecular target: hMCD (malonyl-CoA decarboxylase) (Homo sapiens, UniProt O95822)
Assay: In Vitro MCD Inhibitory Assay
Conditions: Table 1, MCD inhibition
Protocol: In Vitro MCD Inhibitory Assay:
The conversion of […] was assayed using a modified protocol as previously described by Kim, Y. S. and Kolattukudy, P. E. in 1978 (Arch. Biochem. Biophys 190:585 (1978)). As shown in eq. 1-3, the establishment of the kinetic equilibrium between malate/NAD and oxaloacetate/NADH was catalyzed by malic dehydrogenase (eq. 2). […] The accumulation of NADH can be continuously followed by monitoring the increase of fluorescence emission at 460 nm on a fluorescence plate reader. The fluorescence plate reader was calibrated using the authentic acetyl-CoA from Sigma. For a typical 96-well plate assay, the increase in the fluorescence emission (λex=360 nm, λem=460 nm, for NADH) in each well was used to calculate the initial velocity of hMCD. Each 50 μL assay contained 10 mM phosphate buffered saline (Sigma), pH 7.4, 0.05% Tween-20, 25 mM K2HPO4—KH2PO4 (Sigma), 2 mM Malate (Sigma), 2 mM NAD (Boehringer Mannheim), 0.786 units of MD (Roche Chemicals), 0.028 unit of CS (Roche Chemicals), 5-10 nM hMCD, and varying amounts of MCA substrate. Assays were initiated by the addition of MCA, and the rates were corrected for the background rate determined in the absence of hMCD.

The chains behind the UniProt entries cited, without tags or fusion partners. Residues count along the entry.
UniProt O95822, 40-493 limits assumed: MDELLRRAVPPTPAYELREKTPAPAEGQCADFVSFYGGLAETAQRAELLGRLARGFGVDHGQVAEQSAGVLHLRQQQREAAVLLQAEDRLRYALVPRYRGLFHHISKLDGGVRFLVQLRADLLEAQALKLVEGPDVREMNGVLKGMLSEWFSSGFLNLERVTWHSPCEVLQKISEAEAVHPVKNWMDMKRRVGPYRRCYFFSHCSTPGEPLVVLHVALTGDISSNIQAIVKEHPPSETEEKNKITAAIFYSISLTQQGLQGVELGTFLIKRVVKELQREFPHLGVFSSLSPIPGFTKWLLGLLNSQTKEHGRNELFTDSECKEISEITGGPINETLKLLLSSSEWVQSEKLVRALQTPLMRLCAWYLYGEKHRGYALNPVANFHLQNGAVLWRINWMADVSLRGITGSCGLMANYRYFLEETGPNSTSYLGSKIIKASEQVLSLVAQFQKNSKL

Ki: 1410 nM
SMILES: CCN(C(C)=O)C1CCN(C(=NC#N)Nc2ccc3nc(S)sc3c2)C1 (stereo not shown)
